Measurements from PubChem BioAssay AID493014 (National Center for Advancing Translational Sciences (NCATS), 2011).
The list shows a part of the results. Further columns of the screen follow, without active or inactive calls. Most of these compounds were active or inconclusive in the main read-out, so they are no random draw. Words in brackets tell the shape of the fitted curve; partial curves, single points and poor fits give uncertain potencies.

Experiment: qHTS Assay to Find Inhibitors of Chronic Active B-Cell Receptor Signaling
Conditions: ABC-DLBCL IkBa-CBG/CBR reporter, luminescence ratio (green luciferase fused to IkBa over red control in TMD8 lymphoma cells), 4 h
Procedure, shortened: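 TMD8 ABC-DLBCL cells carrying doxycycline-inducible green luciferase fused to IkappaBalpha plus unfused red luciferase were exposed to compounds (up to 46 uM) for 4 hrs at 37C. Activity came from the overlap-corrected green/red luminescence ratio.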

[1] = measured here: CBR red luminescence, cell number
[2] = measured here: IkBa-CBG green luminescence

Structure (SMILES) | AC50 [1] | AC50 [2]
CCCCNC(=O)N(O)C1N(/N=C/c2cccnc2)C(=S)SC1(C)C (stereo not drawn) | 2 µM [rising, full curve, poor fit] | –
O=C(NCCCN1CCOCC1)c1cccs1 | 5.17 µM [rising, single point] | –
COc1ccc(Cl)cc1S(=O)(=O)n1nnc2ccccc21 | 35.5 µM [falling, single point] | –
Cc1cccc2sc(NC(=O)CN3C(=O)NC4(CCCC4)C3=O)nc12 | 7.94 µM [falling, partial curve, poor fit] | –
COc1ccc(-c2cc3nc(C4CCN(C(=O)OC(C)(C)C)CC4)c(C(=O)O)cn3n2)cc1 | 7.94 µM [rising, partial curve, poor fit] | –
O=c1oc(-c2cccc([N+](=O)[O-])c2)nc2ccccc12 | 2.82 µM [falling, full curve] | –
Cc1cc(N2CCOCC2)n2ncc(-c3ccc(Cl)cc3)c2n1 | 0.0891 µM [falling, full curve, poor fit] | –
Cc1ccc(S(=O)(=O)NC(C(=O)Oc2cc3oc(=O)cc(C)c3cc2Cl)C(C)C)cc1 (stereo not drawn) | 25.1 µM [falling, single point] | –
CCOC(=O)c1ccc(NC(=O)Nc2ccc(F)cc2)cc1 | 10.3 µM [falling, partial curve, poor fit] | –
CCNC(=S)N/N=C/c1cccs1 | 29.1 µM [rising, single point] | 18.4 µM [falling, single point]
COc1ccccc1OCC(=O)Nc1ncc(C)s1 | 13 µM [falling, partial curve, poor fit] | –
COc1ccc(/C=C2\SC(=S)N(CCC(=O)NCCCn3ccnc3)C2=O)cc1 | 2 µM [falling, full curve] | –
CCCNS(=O)(=O)c1ccc(OCC(=O)NCc2ccco2)cc1 | 29.1 µM [rising, single point] | –
Cc1ccc2nc(NC(=O)CCCc3nc4ccccc4s3)sc2c1 | 29.1 µM [falling, single point] | –
CCOC(=O)C(NCc1ccco1)(NC(=O)c1ccccc1)C(F)(F)F (stereo not drawn) | 29.1 µM [rising, single point] | –
Cc1ccc(N2C(=O)c3ccccc3C2C(=O)c2ccc(C)c(C)c2O)cc1 (stereo not drawn) | 20 µM [falling, single point] | –
CCOc1ncccc1C(=O)Nc1ccc(Cl)cc1 | 3.26 µM [falling, partial curve, poor fit] | –
CCOC(=O)COc1ccc(S(=O)(=O)Nc2cccc(SC)c2)cc1 | 32.6 µM [rising, single point] | –
CC(C)(C)c1csc(NC(=O)CCc2ccccc2)n1 | 0.631 µM [rising, full curve, poor fit] | –
COc1ccc(C#Cc2c(C=O)n(C)c3ccccc23)cc1 | 20.6 µM [rising, partial curve] | –
COc1ccc(C2=CC(c3c(C)nn(-c4ccccc4)c3Cl)n3nnnc3N2)cc1OC (stereo not drawn) | 1.26 µM [rising, partial curve, poor fit] | –
Cc1csc(=N)n1-c1ccc(Cl)cc1 | 2.82 µM [rising, partial curve, poor fit] | –
COc1ccc(NC(=O)c2sc3nc(C)nc(N4CCOCC4)c3c2C)c(OC)c1 | 15.8 µM [rising, single point] | –

Three entries from above, with tabs:
Structure (SMILES)	AC50 [1]	AC50 [2]
CCOC(=O)C(NCc1ccco1)(NC(=O)c1ccccc1)C(F)(F)F (stereo not drawn)	29.1 µM [rising, single point]	–
Cc1ccc(N2C(=O)c3ccccc3C2C(=O)c2ccc(C)c(C)c2O)cc1 (stereo not drawn)	20 µM [falling, single point]	–
CCOc1ncccc1C(=O)Nc1ccc(Cl)cc1	3.26 µM [falling, partial curve, poor fit]	–

(further entries)

Structure (SMILES) | AC50 [1] | AC50 [2]
COc1ccc(NC(=O)CSCc2ccccc2C)cc1 | 32.6 µM [rising, single point] | –
Cc1ccc(NC(=O)c2ccc(NC(=O)C3CCCCC3C(=O)O)cc2)cc1 (stereo not drawn) | 35.5 µM [falling, single point] | –
CCCc1cc(=O)oc2cc(OCC(=O)NCc3cccs3)ccc12 | 5.8 µM [rising, partial curve] | –
CCOC(=O)c1cnc2c(ccc3ccccc32)c1N | 0.112 µM [rising, full curve, poor fit] | –
N=c1n(CC(=O)c2ccc(Br)s2)c2ccccc2n1Cc1ccccc1 | 5.62 µM [falling, full curve, poor fit] | –
CCCN1Cc2cccc(C(=O)NCCCOC(C)C)c2C1=O | 20.6 µM [rising, partial curve, poor fit] | –
O=C(CCc1ccccc1)NCCc1cccs1 | 15.8 µM [falling, single point] | –
CC(C)N1C(=O)CCC1C(=O)O (stereo not drawn) | 20.6 µM [rising, partial curve, poor fit] | –
Cc1cc(=O)oc2cc(NC(=O)CC3(CC(=O)O)CCCC3)ccc12 | 12.6 µM [falling, partial curve] | –
CCC(=O)OCC(=O)c1c(N)n(Cc2ccccc2)c(=O)n(C)c1=O | 7.08 µM [falling, full curve, poor fit] | –
COc1ccc(CCN=Cc2ccc(O)cc2)cc1OC | 25.1 µM [rising, partial curve, poor fit] | –
COc1ccc(/C=N/Nc2nc(=O)[nH]nc2C)cc1OC | – | 20 µM [falling, partial curve, poor fit]
Cc1ccc(S(=O)(=O)Nc2cc(=O)[nH]c(SCC(=O)Nc3cccc(C(F)(F)F)c3)n2)cc1 | 20 µM [rising, single point] | –
CCOC(=O)N1CCN(C(=O)CCc2c(C)nc3c(c(C)nn3-c3ccc(C)c(C)c3)c2C)CC1 | 6.51 µM [rising, single point] | –
Cc1ccc(NC(=O)CN2CCCCC2)c2c1CC(C)(C)O2 | 35.5 µM [rising, single point] | –
Cc1cc2c(cc1C)CN(c1ccccc1)C2 | 0.501 µM [rising, partial curve, poor fit] | –
CCOC(=O)CCn1nnc(N)n1 | 0.731 µM [rising, partial curve, poor fit] | –
O=C1c2cc(Cl)ccc2OC2(CCNCC2)C12CC(c1ccccc1)=NO2 (stereo not drawn) | 15.8 µM [falling, single point] | –
O=C(COc1ccc2ccccc2c1)Nc1ccc(S(=O)(=O)N2CCCCCC2)cc1 | 13 µM [rising, partial curve, poor fit] | –
COC(=O)c1cc(-c2c(C)oc3cc(O)ccc3c2=O)c(C)o1 | 20.6 µM [rising, single point] | –
O=c1c(-c2ccccc2)c1-c1ccccc1 | 11.2 µM [falling, partial curve] | –
CC(C)OC(=O)Cn1nnc2c(cnn2-c2ccccc2)c1=O | 29.1 µM [falling, single point] | –
O=C1N(c2ccccc2)C(c2ccccc2)C12CCCCC2 (stereo not drawn) | 5.17 µM [rising, partial curve, poor fit] | –

Structure (SMILES) | AC50 [1] | AC50 [2]
O=S(=O)(c1ccccc1)c1nc(-c2ccco2)oc1Nc1ccccc1 | 14.6 µM [falling, single point] | –
O=C(Cc1ccccc1[N+](=O)[O-])NCc1ccc(Cl)cc1Cl | 14.6 µM [rising, partial curve, poor fit] | –
Cc1ccccc1N1C(=O)CSC1=C(C#N)C#N | 15.8 µM [falling, partial curve] | –
Cc1cc(/C=N/n2cnnc2)c(C)n1-c1ccc(OCc2ccc(F)cc2)cc1 | 8.91 µM [falling, partial curve, poor fit] | –
Cc1csc(SCC(=O)Nc2ccccn2)n1 | 7.31 µM [falling, partial curve, poor fit] | –
S=c1[nH]nc(-c2ccco2)n1/N=C/C=C/c1ccccc1 | 35.5 µM [falling, single point] | –
Cc1ccccc1C(=O)NC1CC(C)(C)NC(C)(C)C1 | 0.82 µM [falling, full curve, poor fit] | –
Cc1cc(C(=O)N/N=C2\CCCc3ccccc32)c(C)o1 | 9.2 µM [falling, partial curve] | –
CCOC(=O)c1ccc(N2CN=C3SCC(=O)N3C2)cc1 | 12.6 µM [falling, partial curve, poor fit] | –
CC(C)C(NS(=O)(=O)c1c(Cl)cccc1Cl)C(=O)OCC(=O)c1c[nH]c2ccccc12 (stereo not drawn) | 20.6 µM [falling, single point] | –
Cc1ncc(CSc2ccc(Cl)cc2)c(CO)c1O | 3.55 µM [rising, single point] | –
O=C(c1cccc(Cl)c1)N1CCCC(c2ccc(Cl)cc2)=N1 | 8.91 µM [falling, partial curve] | –
CCC1SC2=NC(C)=C(C(=O)OCCOC)C(c3ccc(C(=O)OC)cc3)N2C1=O (stereo not drawn) | 35.5 µM [rising, single point] | –
COCCNC(=S)N1CCC(c2nc(-c3ccc(N(C)C)cc3)no2)CC1 | 35.5 µM [falling, partial curve, poor fit] | –
COc1ccc2[nH]c3c(=O)n(CCc4ccccc4)cnc3c2c1 | 3.98 µM [falling, partial curve, poor fit] | –
COC(=O)c1c(NC(=O)CSc2nnc(-c3cccnc3)n2Cc2ccco2)sc(C)c1C | 20.6 µM [falling, single point] | –
Cc1cc(C(=O)CSc2nnc(Nc3ccccc3)s2)c(C)n1CC1CCCO1 (stereo not drawn) | 1 µM [rising, full curve, poor fit] | –
COc1ccc(/C=C(\C#N)C(=O)NC(C)c2ccccc2)cc1O (stereo not drawn) | 35.5 µM [falling, single point] | –
CCOC(=O)/C(Sc1nc(-c2ccccc2)cc(-c2ccccc2)c1C#N)=C(\C)O | 35.5 µM [rising, single point] | –
Cc1nc(CSc2nc3[nH]ncc3c(=O)n2-c2ccccc2)cs1 | 2.06 µM [falling, partial curve, poor fit] | –
CCOC(=O)c1cnc2ccc(OCC)cc2c1N1CCN(c2ccccc2)CC1 | 15.8 µM [falling, partial curve, poor fit] | –
